# Test results published in PMC8747035, “Design, Synthesis, and Biological Evaluation of 5,6,7,8-Tetrahydrobenzo[4,5]thieno[2,3-d]pyrimidines as Microtubule Targeting Agents” (Molecules, 2022).
# Columns and labels:
# A-10 cells [1] = conditions: EC50 in A-10 cells / IC50 in MDA-435 cells; cited from earlier work
# HeLa WTβIII cells [2] = conditions: cited from earlier work
# SK-OV-3 MDR1-M6/6 cells = conditions: cited from earlier work
# A-10 cells [3] = test: Cellular microtubule depolymerization in A-10 cells (immunofluorescence); type: cell-based; conditions: EC50 in A-10 cells / IC50 in MDA-435 cells
# Procedure: (§1) We investigated the microtubule depolymerization and the antiproliferative activities of compounds 4–14 (Table 2). […] We next evaluated the importance of the 4′-OMe group of compound 4 by replacing it with an isosteric 4′-SMe (5). […] Clearly, this further substantiated the importance of an S in the scaffold over an NH.
# The effects of the compounds on cellular microtubules were evaluated in A-10 cells using indirect immunofluorescence microscopy. These cells were obtained from the American Type Culture Collection (ATCC) (Manassas, VA, USA). Cells were treated with the compounds of interest for 18 h, and the cells fixed with cold MeOH and microtubule structures were visualized using a β-tubulin antibody (Sigma-Aldrich, St. Louis, MO, USA). The concentration that caused loss of 50% of the interphase microtubules was defined as the EC50 and calculated as previously described. These values represent an average of at least three independent experiments.
# Bovine brain tubulin = test: Inhibition of purified tubulin assembly (turbidity); type: biochemical; conditions: for fold more potent than standard CA-4, tubulin assembly: vs CA-4
# Procedure: Bovine brain tubulin was purified as described previously. The tubulin assembly assay has been described in detail. Briefly, 1.0 mg/mL of tubulin (10 µM) was preincubated for 15 min at 30 °C in 0.8 M monosodium glutamate (pH of 2 M stock solution adjusted to 6.6 with HCl), varying compound concentrations and 4% (v/v) DMSO as compound solvent. After the preincubation, the reaction mixtures were placed on ice and 0.4 mM GTP was added. The reaction mixtures were transferred to cuvettes at 0 °C in a recording spectrophotometer equipped with an electronic temperature controller. After baselines were established, the temperature was elevated over about 30 s to 30 °C, and changes in turbidity were monitored at 350 nm for 20 min. The compound concentration that caused a 50% reduction in increase in turbidity, interpolated from the values obtained with defined compound concentrations, was defined as the IC50 value. The assay to measure inhibition of [^3H]colchicine binding was described in detail previously. Briefly, 0.1 mg/mL (1.0 µM) tubulin was incubated at 37 °C with 5.0 µM [3H]colchicine and potential inhibitors at 5.0 µM. Incubation was for 10 min, at which point the reaction had reached 40–60% of the maximum colchicine that can be bound in reaction mixtures without inhibitor. The [^3H]colchicine was a product of PerkinElmer, USA. CA-4 was a generous gift of Dr. G. R. Pettit, Arizona State University.
# [4] = test system: NCI-60 cancer cell line panel; test: NCI-60 cancer cell line panel (overall); type: cell-based, Human
# Excerpt: Compound 4 had better potency than the lead compound 1 in 50 cancer cell lines. (better by 5 to 6-fold in leukemia, 2 to 17-fold in NSCLC, 2 to 6-fold in colon cancer, 2 to 5-fold in CNS cancer, 2 to 25-fold in melanoma, 2 to 5-fold in ovarian cancer, 2 to 9-fold in renal cancer, 2 to 5-fold in prostate cancer, and 2 to 6-fold in breast cancer compared to lead compound 1).
# MDA-MB-435 cells = test: Antiproliferative SRB assay in MDA-MB-435 cells; type: cell-based, human; conditions: for fold less potent than 4, antiproliferative effects: vs 4; for fold decrease in potency compared to 8: vs 8, antiproliferative and microtubule depolymerizing effects
# Procedure: as §1
# (§2) The antiproliferative and cytotoxic effects of the compounds in cancer cells were evaluated using the SRB assay as previously described. MDA-MB-435 cells were obtained from the Lombardi Cancer Center of Georgetown University (Washington, DC, USA). SK-OV-3 and HeLa cells were purchased from ATCC. Details about the generation of the SK-OV-3 MDR1-M6/6 and HeLa WTβIII cells were described previously. The IC50 values represent an average of three independent experiments, each conducted using triplicate points.
# (§3) HeLa, A-10, SK-OV-3, and SK-OV-3 MDR1-M6/6 cells were grown in Basal Medium Eagle (Sigma-Aldrich, St. Louis, MO, USA) supplemented with 10% FBS (Hyclone, GE Life Sciences, Logan, UT, USA) 1% GlutaMAX (Gibco, Life Technologies, Waltham, MA, USA) and 50 µg/mL gentamycin (Life Technologies, USA). HeLa WTβIII cells were grown in Dulbecco’s Modified Eagle Medium (Life Technologies) supplemented with 10% FBS and 50 µg/mL gentamycin. MDA-MB-435 cells were maintained in Improved Minimum Essential Medium (Life Technologies) supplemented with 10% FBS and 25 µg/mL gentamycin. All cells were grown at 37 °C in a humidified environment with 5% CO2.
# HeLa cells = test: SRB assay in HeLa cells; type: cell-based
# Procedure: (§4) Compounds 4–8, 10, 12, and 13 were evaluated for their abilities to overcome βIII-tubulin mediated drug resistance using an isogenic HeLa cell line pair (Table 4). […] The Rr values (Table 4) were calculated by dividing the IC50 of the βIII-tubulin expressing line by the IC50 obtained in the parental HeLa cells.
# as §2, §3
# HeLa WTβIII cells [5] = test: SRB assay in βIII-tubulin expressing HeLa WTβIII cells; type: cell-based; conditions: IC50 of βIII-tubulin expressing line / IC50 in parental HeLa
# Procedure: as §4, §2, §3
smiles,measurement,setting,value
CSc1ccc(N(C)c2nc(N)nc3[nH]c4ccccc4c23)cc1 [Compound 2],EC50/IC50 Ratio,A-10 cells [1],12
same,Rr Value (WT β3/HeLa),HeLa WTβIII cells [2],0.7
same,Rr Value (M6/6/SK-OV-3),SK-OV-3 MDR1-M6/6 cells,1
COc1ccc(N(C)c2ncnc3[nH]c4ccccc4c23)cc1 [Compound 3],EC50/IC50 Ratio,A-10 cells [1],9.2
same,Rr Value (WT β3/HeLa),HeLa WTβIII cells [2],0.8
same,Rr Value (M6/6/SK-OV-3),SK-OV-3 MDR1-M6/6 cells,1.4
"COc1ccc(N(C)c2nc(N)nc3sc4c(c23)CCCC4)cc1 [Compound 4, N4-(4-methoxyphenyl)-N4-methyl-5,6,7,8-tetrahydrobenzo[4,5]thieno[2,3-d]pyrimidine-2,4-diamine]",EC50/IC50 Ratio,A-10 cells [3],2.2
same,fold more potent than lead 1 as inhibitor of tubulin assembly,Bovine brain tubulin; vs 1,2 fold
same,"fold better potency than lead compound 1, NCI-60",[4]; CNS cancer,2 to 5 fold
same,"fold better potency than lead compound 1, NCI-60",[4]; NSCLC,2 to 17 fold
same,"fold better potency than lead compound 1, NCI-60",[4]; breast cancer,2 to 6 fold
same,"fold better potency than lead compound 1, NCI-60",[4]; colon cancer,2 to 6 fold
same,"fold better potency than lead compound 1, NCI-60",[4]; leukemia,5 to 6 fold
same,"fold better potency than lead compound 1, NCI-60",[4]; melanoma,2 to 25 fold
same,"fold better potency than lead compound 1, NCI-60",[4]; ovarian cancer,2 to 5 fold
same,"fold better potency than lead compound 1, NCI-60",[4]; prostate cancer,2 to 5 fold
same,"fold better potency than lead compound 1, NCI-60",[4]; renal cancer,2 to 9 fold
same,"fold more potent than previously published lead, NCI-60","[4]; whole panel, maximum",up to 25 fold
same,"fold more potent than lead compound 1, cell proliferation",MDA-MB-435 cells; vs 1,1.6 fold
same,fold higher potency than lead compound 1 in HeLa and HeLa WT βIII cell lines,HeLa cells; vs 1,1.6 fold
same,Rr Value (WT β3/HeLa),HeLa WTβIII cells [5],0.8
"CSc1ccc(N(C)c2nc(N)nc3sc4c(c23)CCCC4)cc1 [Compound 5, N4-methyl-N4-(4-(methylthio)phenyl)-5,6,7,8-tetrahydrobenzo[4,5]thieno[2,3-d] pyrimidine-2,4-diamine]",EC50/IC50 Ratio,A-10 cells [3],1.8
same,fold more potent than lead compound 2 as inhibitor of tubulin assembly,Bovine brain tubulin; vs 2,5 fold
same,"fold more potent than standard CA-4, tubulin assembly",Bovine brain tubulin,2 fold
same,"fold more potent than 2, antiproliferative effects",MDA-MB-435 cells; vs 2,2.3 fold
same,fold higher potency than lead compound 2 in HeLa and HeLa WT βIII cell lines,HeLa cells; vs 2,2 fold
same,Rr Value (WT β3/HeLa),HeLa WTβIII cells [5],0.7
"COc1ccc2c(c1)CCCN2c1nc(N)nc2sc3c(c12)CCCC3 [Compound 6, 4-(6-Methoxy-3,4-dihydroquinolin-1(2H)-yl)-5,6,7,8-tetrahydrobenzo[4,5]thieno[2,3-d]-pyrimidin-2-amine]",EC50/IC50 Ratio,A-10 cells [3],2.0
same,"fold less potent than 4, antiproliferative effects",MDA-MB-435 cells,6 fold
same,Rr Value (WT β3/HeLa),HeLa WTβIII cells [5],0.7
"COc1ccc(N(C)c2ncnc3sc4c(c23)CCCC4)cc1 [Compound 7, N-(4-methoxyphenyl)-N-methyl-5,6,7,8-tetrahydrobenzo[4,5]thieno[2,3-d]pyrimidin-4-amine]",EC50/IC50 Ratio,A-10 cells [3],1.2
same,fold more potent than lead compound 3 as inhibitor of tubulin assembly,Bovine brain tubulin; vs 3,5 fold
same,"fold more potent than standard CA-4, tubulin assembly",Bovine brain tubulin,2 fold
same,"fold more potent than compound 3, antiproliferative effects",MDA-MB-435 cells; vs 3,3.5 fold
same,fold higher potency than lead compound 3 in HeLa and HeLa WT βIII cell lines,HeLa cells; vs 3,2 fold
same,Rr Value (WT β3/HeLa),HeLa WTβIII cells [5],0.7
"COc1ccc(N(C)c2nc(C)nc3sc4c(c23)CCCC4)cc1 [Compound 8, N-(4-methoxyphenyl)-N,2-dimethyl-5,6,7,8-tetrahydrobenzo[4,5]thieno[2,3-d]pyrimidin-4-amine]",EC50/IC50 Ratio,A-10 cells [3],1.0
same,"fold more potent than standard CA-4, tubulin assembly",Bovine brain tubulin,2 fold
same,"fold less potent than 4, antiproliferative effects",MDA-MB-435 cells,5.8 fold
same,Rr Value (WT β3/HeLa),HeLa WTβIII cells [5],0.9
"CSc1ccc(N(C)c2nc(C)nc3sc4c(c23)CCCC4)cc1 [Compound 10, N,2-dimethyl-N-(4-(methylthio)phenyl)-5,6,7,8-tetrahydrobenzo[4,5]thieno[2,3-d]pyrimidin-4-amine]",EC50/IC50 Ratio,A-10 cells [3],1.8
same,"fold more potent than standard CA-4, tubulin assembly",Bovine brain tubulin,2 fold
same,fold lower potency than 5 in both assays,"MDA-MB-435 cells; vs 5, microtubule depolymerization and antiproliferative assays",2 fold
same,Rr Value (WT β3/HeLa),HeLa WTβIII cells [5],0.7
"COc1ccc2c(c1)CCCN2c1nc(C)nc2sc3c(c12)CCCC3 [Compound 12, 4-(6-Methoxy-3,4-dihydroquinolin-1(2H)-yl)-2-methyl-5,6,7,8-tetrahydrobenzo[4,5]thieno[2,3-d]pyrimidine]",EC50/IC50 Ratio,A-10 cells [3],1.2
same,fold decrease in potency compared to 8,MDA-MB-435 cells,2.3–3 fold
same,Rr Value (WT β3/HeLa),HeLa WTβIII cells [5],1.1
"COc1cccc2cc(N(C)c3nc(C)nc4sc5c(c34)CCCC5)ccc12 [Compound 13, N-(5-methoxynaphthalen-2-yl)-N,2-dimethyl-5,6,7,8-tetrahydrobenzo[4,5]thieno[2,3-d]pyrimidin-4-amine]",EC50/IC50 Ratio,A-10 cells [3],1.5
same,fold decrease in potency compared to 8,MDA-MB-435 cells,1.5- to 2 fold
same,Rr Value (WT β3/HeLa),HeLa WTβIII cells [5],0.8
"CC(=O)O[C@H]1C(=O)[C@@]2(C)[C@H]([C@H](OC(=O)c3ccccc3)[C@]3(O)C[C@H](OC(=O)[C@H](O)[C@@H](NC(=O)c4ccccc4)c4ccccc4)C(C)=C1C3(C)C)[C@]1(OC(C)=O)CO[C@@H]1C[C@@H]2O [Paclitaxel, paclitaxel, reference compound]",Rr Value (WT β3/HeLa),HeLa WTβIII cells [5],8.6

# Read-outs that look alike come from different tables or passages of the source.
